Results deposited as PubChem BioAssay AID686938 (Drosophila RNAi Screening Center, 2013)

Aim: 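Knock-downs reducing store-operated calcium influx in Drosophila cells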 (primary screen)
System: Drosophila S2R+ cells
Reagent: long dsRNA against Drosophila genes, about 0.25 µg dsRNA per well, roughly 10,000 cells
Timing: 5 days of knock-down before the calcium assay
Conditions: thapsigargin (SERCA pump blocker) to empty calcium stores; entry signal taken 4 min after adding it
Detection: 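Per-well fluo-4 fluorescence in two replicates, unnormalised, measured in resting cells and 4 min after store depletion by the SERCA blocker thapsigargin; ratio of the two present in few wells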
Direction: calcium entry signal: higher = stronger calcium signal after store depletion; entry to resting ratio: higher = more calcium entry relative to resting level; resting calcium signal: higher = higher resting calcium signal
Hit rule: 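Called when the plate z-score of the entry-to-rest ratio, mean of duplicates, falls below −3; wells with low overall dye signal (Fmax z below −2) or more than five off-targets excluded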
Calls: active = strongly reduced calcium entry; inactive = no strong reduction
The deposit covers about 23,000 reagents; below is an unselected part of those with a known target gene and a result. Over the whole deposit, 75 (0.33%) were called active. 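Raw plate signals without normalisation; calls rest on plate z-scores that were not deposited; ratio present for only 364 wells.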 Not given: the dose of the treatment.

target	amplicon	calcium entry signal, replicate 1 (fluorescence units)	calcium entry signal, replicate 2 (fluorescence units)	entry to resting ratio	resting calcium signal, replicate 1 (fluorescence units)	resting calcium signal, replicate 2 (fluorescence units)	activity call
ND-B18 (GeneID 32434)	DRSC19947	4.33e7	2.97e7		2.04e7	1.34e7	inactive
CG31897 (GeneID 319011)	DRSC01020	3.48e7	5.54e7		1.89e7	2.48e7	inactive
CG7024 (GeneID 31407)	DRSC18414	3.13e7	3.99e7		1.57e7	2.05e7	inactive
mRpS28 (GeneID 37136)	DRSC06939	6.37e7	6.39e7		2.74e7	2.79e7	inactive
Arpc2 (GeneID 35311)	DRSC02113	3.16e7			1.61e7		inactive
mRpS33 (GeneID 41991)	DRSC14239	3.89e7	6.42e7		1.77e7	6.39e7	inactive
otu (GeneID 31789)	DRSC18811	3.60e7	4.44e7		1.73e7	2.05e7	inactive
CG17111 (GeneID 42727)	DRSC15174	5.15e7	5.45e7		2.64e7	2.40e7	inactive
TfIIS (GeneID 34883)	DRSC03455	4.28e7			2.18e7		inactive
mtSSB (GeneID 41968)	DRSC17005	3.48e7	5.29e7		1.72e7	6.12e7	inactive
BtbVII (GeneID 38376)	DRSC08151	3.81e7	3.74e7		2.17e7	1.56e7	inactive
BtbVII (GeneID 38376)	DRSC08415	2.99e7	2.03e7		2.21e7	9.37e6	inactive
CG7872 (GeneID 32493)	DRSC20062	2.67e7	3.23e7		1.34e7	1.44e7	inactive
CG1077 (GeneID 40751)	DRSC12146	4.86e7	1.58e7		2.29e7	9.15e6	inactive
CG42523 (GeneID 8674082)	DRSC00251	5.28e7	3.86e7		2.44e7	1.81e7	inactive
stc (GeneID 34888)	DRSC03620	4.19e7			2.14e7		inactive
CG31454 (GeneID 318744)	DRSC14365	4.08e7	3.34e7		2.22e7	1.68e7	inactive
CG31454 (GeneID 318744)	DRSC22801	3.30e7	4.47e7		1.63e7	1.98e7	inactive
Ranbp21 (GeneID 32970)	DRSC19447	3.19e7	2.74e7		1.54e7	1.22e7	inactive
CG31326 (GeneID 41728)	DRSC16532	1.88e7	3.06e7		9.64e6	5.06e7	inactive
CG34160 (GeneID 5740175)	DRSC01131	3.63e7	5.40e7		1.76e7	2.38e7	inactive
CG31999 (GeneID 43777)	DRSC17131	3.81e7	5.78e7	2	1.92e7	2.08e7	inactive
CG31999 (GeneID 43777)	DRSC17133	3.32e7	5.37e7	2.1	1.61e7	2.01e7	inactive
Rab23 (GeneID 40701)	DRSC12305	4.48e7	3.88e7		2.18e7	1.93e7	inactive
tamo (GeneID 37864)	DRSC04446	4.19e7			2.27e7		inactive
CG14797 (GeneID 31123)	DRSC17955	3.45e7	4.22e7	2.1	1.63e7	1.61e7	inactive
CG4364 (GeneID 34287)	DRSC02742	2.63e7			1.51e7		inactive
Tengl4 (GeneID 41321)	DRSC15620	4.34e7	3.68e7		2.08e7	1.93e7	inactive
CG32834 (GeneID 318238)	DRSC21929	3.24e7	3.52e7		1.60e7	2.03e7	inactive

Targets above whose gene name begins with R or r:
target	amplicon	calcium entry signal, replicate 1 (fluorescence units)	calcium entry signal, replicate 2 (fluorescence units)	entry to resting ratio	resting calcium signal, replicate 1 (fluorescence units)	resting calcium signal, replicate 2 (fluorescence units)	activity call
Ranbp21 (GeneID 32970)	DRSC19447	3.19e7	2.74e7		1.54e7	1.22e7	inactive
Rab23 (GeneID 40701)	DRSC12305	4.48e7	3.88e7		2.18e7	1.93e7	inactive

Continued:
target	amplicon	calcium entry signal, replicate 1 (fluorescence units)	calcium entry signal, replicate 2 (fluorescence units)	entry to resting ratio	resting calcium signal, replicate 1 (fluorescence units)	resting calcium signal, replicate 2 (fluorescence units)	activity call
TyrRII (GeneID 42135)	DRSC15150	2.12e7	3.14e7		2.79e7	1.30e7	inactive
CG30001 (GeneID 246383)	DRSC05191	3.04e7	6.58e7		1.70e7	2.88e7	inactive
Rbf2 (GeneID 41941)	DRSC16816	3.26e7	6.65e7		1.59e7	5.83e7	inactive
swaPsi (GeneID 3771807)	DRSC21685	3.64e7	3.45e7		2.24e7	1.70e7	inactive
CG18635 (GeneID 37031)	DRSC06780	3.55e7	3.38e7		2.00e7	1.62e7	inactive
mRpL32 (GeneID 43698)	DRSC14479	3.45e7	6.45e7		1.67e7	2.33e7	inactive
Dnaaf6 (GeneID 39598)	DRSC10473	3.56e7	4.77e7		1.66e7	1.87e7	inactive
onecut (GeneID 45816)	DRSC17175	2.93e7	5.80e7	2	1.46e7	2.07e7	inactive
Idgf6 (GeneID 36868)	DRSC07360	3.96e7	4.51e7		1.81e7	2.12e7	inactive
P5cr (GeneID 42284)	DRSC16782	2.51e7	3.04e7		3.56e7	1.36e7	inactive
MED1 (GeneID 40403)	DRSC11808	2.72e7	3.12e7		1.36e7	2.37e7	inactive
CG18081 (GeneID 39725)	DRSC10294	4.25e7	7.52e7		2.14e7	2.67e7	inactive
Pde6 (GeneID 41760)	DRSC16401	3.11e7	4.84e7		1.38e7	1.94e7	inactive
Pde6 (GeneID 41760)	DRSC16402	2.67e7	4.49e7		1.29e7	6.64e7	inactive
Pde6 (GeneID 41760)	DRSC16403	2.49e7	4.41e7		1.42e7	6.42e7	inactive
CG31659 (GeneID 318875)	DRSC00760	3.79e7	4.16e7		1.80e7	1.99e7	inactive
CG8777 (GeneID 35921)	DRSC07263	4.91e7	4.28e7		1.98e7	1.93e7	inactive
HP1e (GeneID 41108)	DRSC16379	2.49e7	2.85e7		1.29e7	1.53e7	inactive
EMC4 (GeneID 40505)	DRSC11638	2.25e7	3.53e7		1.12e7	1.32e7	inactive
lncRNA:CR43435 (GeneID 12798042)	DRSC12414	2.29e7	3.25e7		1.18e7	1.46e7	inactive
CG13739 (GeneID 35957)	DRSC06410	3.58e7	3.37e7		1.88e7	1.53e7	inactive
CG13739 (GeneID 35957)	DRSC23200	3.55e7	3.30e7		1.78e7	1.54e7	inactive
CG12376 (GeneID 35857)	DRSC06144	4.98e7	4.00e7		1.94e7	1.84e7	inactive
Abl (GeneID 45821)	DRSC09661	5.13e7	1.02e8		2.55e7	3.81e7	inactive
Abl (GeneID 45821)	DRSC23306	4.03e7	4.19e7		2.06e7	2.02e7	inactive
Sgp (GeneID 34188)	DRSC02195	4.80e7			2.27e7		inactive
CG11664 (GeneID 31033)	DRSC18650	4.58e7	5.75e7	2	2.26e7	2.21e7	inactive
Jhbp12 (GeneID 42924)	DRSC14621	3.90e7	4.13e7		2.19e7	1.69e7	inactive
siz (GeneID 40327)	DRSC11622	3.10e7	5.10e7		1.56e7	2.16e7	inactive
siz (GeneID 40327)	DRSC11689	3.41e7	4.57e7		1.76e7	1.95e7	inactive
siz (GeneID 40327)	DRSC11690	3.28e7	5.49e7		1.55e7	1.98e7	inactive
